The text below walks through data of publication PMC4777437.

Protein sequences, listed by entry. Tags and fused reporters are not part of them.
UniProt P19525: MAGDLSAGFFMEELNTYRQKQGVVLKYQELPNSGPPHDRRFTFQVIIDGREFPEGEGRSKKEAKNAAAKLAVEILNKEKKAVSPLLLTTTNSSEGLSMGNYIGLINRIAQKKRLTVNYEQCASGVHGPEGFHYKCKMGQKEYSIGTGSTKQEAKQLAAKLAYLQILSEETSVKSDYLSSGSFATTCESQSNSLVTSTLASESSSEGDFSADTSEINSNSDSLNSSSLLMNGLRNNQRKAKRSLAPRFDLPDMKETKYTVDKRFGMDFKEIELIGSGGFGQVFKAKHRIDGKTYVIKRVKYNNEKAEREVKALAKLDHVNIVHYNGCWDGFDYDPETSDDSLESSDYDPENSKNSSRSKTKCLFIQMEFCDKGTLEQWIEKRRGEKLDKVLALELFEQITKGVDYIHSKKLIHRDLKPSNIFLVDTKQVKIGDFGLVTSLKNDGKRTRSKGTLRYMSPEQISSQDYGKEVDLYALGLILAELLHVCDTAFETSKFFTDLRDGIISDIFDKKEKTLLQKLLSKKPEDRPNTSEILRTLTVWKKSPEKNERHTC
UniProt Q16539: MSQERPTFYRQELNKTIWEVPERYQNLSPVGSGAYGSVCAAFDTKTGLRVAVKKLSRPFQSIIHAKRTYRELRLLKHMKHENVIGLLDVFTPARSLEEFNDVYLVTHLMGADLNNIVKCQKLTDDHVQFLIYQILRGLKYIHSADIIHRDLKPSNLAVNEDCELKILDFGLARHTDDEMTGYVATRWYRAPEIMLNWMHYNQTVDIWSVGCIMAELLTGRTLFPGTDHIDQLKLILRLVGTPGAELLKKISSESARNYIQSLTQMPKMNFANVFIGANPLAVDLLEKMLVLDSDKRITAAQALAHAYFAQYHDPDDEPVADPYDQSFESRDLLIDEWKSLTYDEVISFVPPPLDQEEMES

The target of test [1] is protein kinase R (PKR), endogenous (human (endogenous in HEK293T and A549)) (UniProt P19525).
For test [2], the target named is T1, FLAG-tagged MDA5 (human) (UniProt Q9BYX4).
T1 sequence: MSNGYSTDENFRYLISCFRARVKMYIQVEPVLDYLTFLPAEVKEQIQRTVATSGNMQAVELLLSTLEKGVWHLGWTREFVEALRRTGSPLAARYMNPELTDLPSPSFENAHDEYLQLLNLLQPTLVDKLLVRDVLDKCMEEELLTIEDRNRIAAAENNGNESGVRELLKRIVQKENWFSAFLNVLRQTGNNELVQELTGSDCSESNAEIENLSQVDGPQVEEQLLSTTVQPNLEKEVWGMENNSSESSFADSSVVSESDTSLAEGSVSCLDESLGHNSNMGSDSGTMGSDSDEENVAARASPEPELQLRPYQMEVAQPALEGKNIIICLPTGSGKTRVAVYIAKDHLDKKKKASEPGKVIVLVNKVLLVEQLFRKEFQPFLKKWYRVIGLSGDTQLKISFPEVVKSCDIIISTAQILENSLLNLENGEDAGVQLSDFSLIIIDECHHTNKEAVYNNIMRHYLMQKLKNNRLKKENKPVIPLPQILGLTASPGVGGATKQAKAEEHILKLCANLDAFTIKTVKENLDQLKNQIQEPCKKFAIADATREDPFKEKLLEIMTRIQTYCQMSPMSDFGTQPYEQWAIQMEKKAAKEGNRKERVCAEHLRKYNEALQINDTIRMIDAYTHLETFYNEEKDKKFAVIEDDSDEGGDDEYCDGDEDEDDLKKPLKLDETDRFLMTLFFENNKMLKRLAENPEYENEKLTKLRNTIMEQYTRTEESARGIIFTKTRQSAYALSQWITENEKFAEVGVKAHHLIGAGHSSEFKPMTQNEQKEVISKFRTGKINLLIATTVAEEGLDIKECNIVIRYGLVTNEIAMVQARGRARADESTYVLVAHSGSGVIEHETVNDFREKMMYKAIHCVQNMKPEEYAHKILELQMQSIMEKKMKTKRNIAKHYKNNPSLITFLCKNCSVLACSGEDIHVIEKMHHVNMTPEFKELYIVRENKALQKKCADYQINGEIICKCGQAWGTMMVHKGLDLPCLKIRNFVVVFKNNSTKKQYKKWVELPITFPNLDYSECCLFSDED
The experiment in a line: co-IP; extracts of HEK293T transfected with flag-tagged MDA5, untreated or treated with micrococcal nuclease (100 units/mL, 30 min, 37°C) before anti-FLAG immunoprecipitation; blot for PKR.

Results are given in words; binding and its absence hold for the method and conditions named. In cells and extracts the contact can be indirect. Some results given as binding are weak or reduced against the parent protein; the word gives no strength. For some assays here: Where a sequence is shown, tags or fusion partners need not be part of it.

Turning to “p38 MAPK, endogenous (from UniProt Q16539 1-360) (enzyme)”, in test [1], the binding result is on record as “no binding”.
For the substance “protein kinase R (PKR), endogenous (from UniProt P19525 1-551) (enzyme)”, the binding result in test [2] is reported as “binds”.
